This note sets out measurements from patent publication US20170342169A1.

Sequences of proteins named here, by UniProt entry; tags and fusion partners are left off. A change or cut given only in a name is not applied to a line headed by its entry. A line that says so, or that is headed by a name, gives the form on record, which may keep a tag or linker.
soluble form of the extracellular domain of cynomolgus (cyno) CD40 (Creative BioMart) (G7PG38, form named): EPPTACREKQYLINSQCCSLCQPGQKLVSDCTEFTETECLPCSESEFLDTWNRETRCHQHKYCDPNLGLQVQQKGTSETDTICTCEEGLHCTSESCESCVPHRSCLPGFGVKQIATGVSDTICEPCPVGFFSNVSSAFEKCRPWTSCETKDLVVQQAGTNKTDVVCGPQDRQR

No constants are given. Whether binding was seen depends on the method and setting. Some entries that bind do so weakly or less than the wild type.

Experiment [1] addresses T1, mouse 4-1BB (mouse) (UniProt P20334).
T1 sequence (looked up): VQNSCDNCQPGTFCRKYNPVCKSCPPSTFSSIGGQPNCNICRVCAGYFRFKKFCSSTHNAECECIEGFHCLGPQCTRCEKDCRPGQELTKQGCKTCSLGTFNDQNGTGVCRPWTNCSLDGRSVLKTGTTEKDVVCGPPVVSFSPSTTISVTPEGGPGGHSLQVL
In words: SPR (Biacore).

The target of experiment [2] is soluble form of the extracellular domain of cynomolgus (cyno) CD40 (Creative BioMart) (cynomolgus) (UniProt G7PG38). In words: SPR.

B1: TABBY108-rIgG1 (antibody, V domains shown)
VH: EIQLQESGPGLVRPSQSLSLACSVTGYTITSAYDWSWIRKFPGNKMEWMGYIAYIGFTNSNPSLKSRISITRDTSKNQFFLQLKSVTTEDTATYYCARWSSYIPRYFDFWGPGTMVTVSS
VL: QAVLTQPNSVSTSLGSTVKLSCTITSGNIEDNFVHWYQHYEGRSPTTMIHNDDKRPDGVPDRFSGSIDSSSNSAFLTINNVEIEDEAIYFCHSYVSSINIFGGGTKLTVL
Turning to B1, the binding entry in experiment [1] is “binds”.

B2: huAb8-1 (antibody, human IgG1, V domains shown)
VH: EVQLVQSGAEVKKPGSSVKVSCKASGYTFTDYYINWVRQAPGQGLEWIGWIFPGSGSVYCNEQFKGRATLTVDRSTSTAYMELSSLRSEDTAVYFCASSLGKFAYWGQGTLVTVSS
VL: DIQMTQSPSSLSASVGDRVTITCKASQSVVTAVAWYQQKPGKSPKLLIYSASNRYTGVPSRFSGSGSGTDFTLTISSLQPEDFATYFCQQYSSYPYTFGGGTKVEIK
For B2, the binding entry in experiment [2] was “binds”.
